PMC5477585
Results are given in words; binding and its absence hold for the method and conditions named. Binding seen in cells or lysates may run through a third protein. Some results given as binding are weak or reduced against the parent protein; the word gives no strength.

By UniProt entry, the sequences of proteins in these tests, tags left out.
UniProt Q9BUR4: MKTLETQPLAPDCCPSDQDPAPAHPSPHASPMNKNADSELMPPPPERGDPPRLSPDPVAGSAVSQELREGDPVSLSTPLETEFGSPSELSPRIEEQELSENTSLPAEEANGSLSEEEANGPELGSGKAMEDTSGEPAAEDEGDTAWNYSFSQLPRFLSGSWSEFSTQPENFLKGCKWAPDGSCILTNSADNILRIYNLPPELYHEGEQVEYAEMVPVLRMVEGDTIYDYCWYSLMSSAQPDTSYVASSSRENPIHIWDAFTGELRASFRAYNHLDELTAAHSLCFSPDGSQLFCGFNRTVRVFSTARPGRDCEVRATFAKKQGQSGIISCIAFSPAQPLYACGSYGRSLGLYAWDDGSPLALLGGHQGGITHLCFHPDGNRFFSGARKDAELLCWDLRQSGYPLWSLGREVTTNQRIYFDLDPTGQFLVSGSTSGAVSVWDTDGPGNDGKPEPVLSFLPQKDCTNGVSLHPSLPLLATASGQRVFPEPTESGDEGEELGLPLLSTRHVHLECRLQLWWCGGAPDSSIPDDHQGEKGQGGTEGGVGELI

Columns and labels:
[1] = biological target: WDR79 (WD repeat protein 79), endogenous (human (endogenous in H1299)) (UniProt Q9BUR4); test: co-IP; endogenous proteins in H1299 lysate; precipitated with anti-WDR79 or with anti-USP7 antibody, isotype-matched IgG as control; Universal Magnetic Co-IP Kit, 1 mg crude extract, 3 μg antibody overnight at 4 °C
[2] = biological target: Flag-tagged WDR79 (WD repeat protein 79) (human) (UniProt Q9BUR4); test: co-IP; A549 cells transfected with Flag-WDR79; lysate precipitated with anti-Flag antibody, blotted for USP7; Universal Magnetic Co-IP Kit, 1 mg crude extract, 3 μg antibody overnight at 4 °C, protein G magnetic beads
[3] = biological target: USP7 (ubiquitin-specific protease 7), endogenous (human (endogenous in A549 and H1299)) (UniProt Q93009); test: co-IP; endogenous proteins in H1299 lysate; precipitated with anti-WDR79 or with anti-USP7 antibody, isotype-matched IgG as control; Universal Magnetic Co-IP Kit, 1 mg crude extract, 3 μg antibody overnight at 4 °C

Row | Substance | binding [1] | binding [2] | binding [3]
1 | USP7 (ubiquitin-specific protease 7), endogenous (from UniProt Q93009 1-1102) (enzyme) | binds | binds | 
2 | WDR79 (WD repeat protein 79), endogenous (from UniProt Q9BUR4 1-548) |  |  | binds
